Measured values reported in the supplement of paper PMC6411743.
± gives the standard deviation of the averaged measurements. This is a selection; strong and weak results do not stand in their true shares. Most values lie at the level of the controls, where differences are scatter.

The chains behind the UniProt entries cited, without tags or fusion partners. Where a name states a change or a piece, a line headed by the entry shows the natural chain unless it says otherwise.
UniProt O15439: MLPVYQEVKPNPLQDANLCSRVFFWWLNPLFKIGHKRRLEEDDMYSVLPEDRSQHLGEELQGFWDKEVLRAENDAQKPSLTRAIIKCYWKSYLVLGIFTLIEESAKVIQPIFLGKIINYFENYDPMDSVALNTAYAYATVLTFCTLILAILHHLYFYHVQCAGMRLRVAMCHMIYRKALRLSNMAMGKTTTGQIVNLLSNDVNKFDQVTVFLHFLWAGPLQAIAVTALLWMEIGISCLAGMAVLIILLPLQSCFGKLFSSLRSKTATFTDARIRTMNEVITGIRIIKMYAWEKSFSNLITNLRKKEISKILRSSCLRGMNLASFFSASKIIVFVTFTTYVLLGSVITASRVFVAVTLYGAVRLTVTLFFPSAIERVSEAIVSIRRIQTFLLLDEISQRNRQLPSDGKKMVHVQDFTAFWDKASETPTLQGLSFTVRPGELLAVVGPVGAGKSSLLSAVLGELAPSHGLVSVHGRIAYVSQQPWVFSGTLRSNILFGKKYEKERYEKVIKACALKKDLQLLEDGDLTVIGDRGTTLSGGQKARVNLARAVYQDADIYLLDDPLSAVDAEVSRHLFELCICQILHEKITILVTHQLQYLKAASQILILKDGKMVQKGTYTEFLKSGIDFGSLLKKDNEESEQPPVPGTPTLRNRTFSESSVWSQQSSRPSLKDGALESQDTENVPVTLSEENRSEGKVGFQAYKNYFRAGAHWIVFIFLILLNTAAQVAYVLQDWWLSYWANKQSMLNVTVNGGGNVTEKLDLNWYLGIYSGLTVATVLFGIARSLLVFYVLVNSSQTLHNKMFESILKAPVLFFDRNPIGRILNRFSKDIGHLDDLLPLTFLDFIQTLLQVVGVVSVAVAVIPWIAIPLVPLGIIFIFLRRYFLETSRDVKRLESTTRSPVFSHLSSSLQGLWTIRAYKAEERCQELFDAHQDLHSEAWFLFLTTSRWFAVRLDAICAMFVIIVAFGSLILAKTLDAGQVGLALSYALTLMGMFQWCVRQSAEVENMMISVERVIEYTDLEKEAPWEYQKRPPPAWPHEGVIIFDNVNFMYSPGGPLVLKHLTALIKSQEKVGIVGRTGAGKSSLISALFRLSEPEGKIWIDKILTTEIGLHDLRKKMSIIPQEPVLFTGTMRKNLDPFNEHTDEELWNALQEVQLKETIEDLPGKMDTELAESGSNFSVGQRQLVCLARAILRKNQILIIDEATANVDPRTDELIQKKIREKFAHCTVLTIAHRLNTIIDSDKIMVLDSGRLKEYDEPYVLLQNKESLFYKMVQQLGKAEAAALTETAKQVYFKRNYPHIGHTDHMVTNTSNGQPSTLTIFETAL
UniProt O43293: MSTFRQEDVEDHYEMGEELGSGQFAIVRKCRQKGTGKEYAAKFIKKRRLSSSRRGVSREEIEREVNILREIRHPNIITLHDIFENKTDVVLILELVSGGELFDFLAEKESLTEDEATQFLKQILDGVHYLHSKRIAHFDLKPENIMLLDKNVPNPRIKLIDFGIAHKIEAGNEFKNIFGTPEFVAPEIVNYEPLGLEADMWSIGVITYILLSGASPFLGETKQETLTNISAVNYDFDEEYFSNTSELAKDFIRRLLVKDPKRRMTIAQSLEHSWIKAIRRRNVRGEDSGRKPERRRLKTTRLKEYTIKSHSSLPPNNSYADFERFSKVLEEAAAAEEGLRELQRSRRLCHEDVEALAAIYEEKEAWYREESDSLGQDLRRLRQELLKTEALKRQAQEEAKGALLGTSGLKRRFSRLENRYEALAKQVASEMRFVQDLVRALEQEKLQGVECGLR
UniProt P0DPD6: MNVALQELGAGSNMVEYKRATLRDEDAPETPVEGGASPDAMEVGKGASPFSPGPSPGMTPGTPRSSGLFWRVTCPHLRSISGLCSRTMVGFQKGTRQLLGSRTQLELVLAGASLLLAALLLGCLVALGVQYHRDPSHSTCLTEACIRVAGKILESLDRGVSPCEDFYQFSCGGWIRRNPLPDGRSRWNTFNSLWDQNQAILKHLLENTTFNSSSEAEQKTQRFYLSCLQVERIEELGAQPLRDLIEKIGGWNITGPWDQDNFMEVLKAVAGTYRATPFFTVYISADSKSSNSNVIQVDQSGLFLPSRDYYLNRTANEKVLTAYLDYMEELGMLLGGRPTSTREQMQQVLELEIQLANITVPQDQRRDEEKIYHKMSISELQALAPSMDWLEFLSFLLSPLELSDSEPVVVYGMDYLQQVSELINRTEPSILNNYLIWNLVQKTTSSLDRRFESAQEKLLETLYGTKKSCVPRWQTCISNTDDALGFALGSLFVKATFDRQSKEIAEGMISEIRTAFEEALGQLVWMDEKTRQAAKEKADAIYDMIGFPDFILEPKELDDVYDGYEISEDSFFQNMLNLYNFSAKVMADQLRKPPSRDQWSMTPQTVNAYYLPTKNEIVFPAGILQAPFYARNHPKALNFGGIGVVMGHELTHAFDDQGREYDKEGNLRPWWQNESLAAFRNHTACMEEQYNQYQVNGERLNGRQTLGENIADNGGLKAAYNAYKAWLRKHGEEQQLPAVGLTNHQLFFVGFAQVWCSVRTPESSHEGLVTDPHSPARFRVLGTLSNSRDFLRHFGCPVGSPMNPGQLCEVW
UniProt O00233: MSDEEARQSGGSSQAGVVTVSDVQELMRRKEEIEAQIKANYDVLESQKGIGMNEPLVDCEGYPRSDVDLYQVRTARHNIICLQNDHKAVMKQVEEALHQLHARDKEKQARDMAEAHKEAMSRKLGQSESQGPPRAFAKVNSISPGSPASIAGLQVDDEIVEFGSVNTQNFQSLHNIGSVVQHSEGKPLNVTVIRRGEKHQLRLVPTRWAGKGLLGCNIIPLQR
UniProt O14545: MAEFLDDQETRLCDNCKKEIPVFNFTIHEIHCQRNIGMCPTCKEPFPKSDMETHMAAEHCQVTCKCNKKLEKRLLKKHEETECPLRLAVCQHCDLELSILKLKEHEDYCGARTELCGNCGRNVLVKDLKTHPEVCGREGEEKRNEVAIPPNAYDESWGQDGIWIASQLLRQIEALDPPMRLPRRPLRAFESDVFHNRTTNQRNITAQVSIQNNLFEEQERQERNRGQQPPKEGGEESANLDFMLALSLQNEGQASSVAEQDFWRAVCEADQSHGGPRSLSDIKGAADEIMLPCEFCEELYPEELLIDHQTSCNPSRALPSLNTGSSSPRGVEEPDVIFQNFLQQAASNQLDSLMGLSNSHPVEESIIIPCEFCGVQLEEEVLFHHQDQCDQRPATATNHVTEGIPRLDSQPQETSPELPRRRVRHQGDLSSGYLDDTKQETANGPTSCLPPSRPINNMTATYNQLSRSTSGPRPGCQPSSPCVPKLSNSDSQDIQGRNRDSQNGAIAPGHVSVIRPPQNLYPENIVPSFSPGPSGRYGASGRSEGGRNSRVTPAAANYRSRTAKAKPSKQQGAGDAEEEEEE
UniProt O15260: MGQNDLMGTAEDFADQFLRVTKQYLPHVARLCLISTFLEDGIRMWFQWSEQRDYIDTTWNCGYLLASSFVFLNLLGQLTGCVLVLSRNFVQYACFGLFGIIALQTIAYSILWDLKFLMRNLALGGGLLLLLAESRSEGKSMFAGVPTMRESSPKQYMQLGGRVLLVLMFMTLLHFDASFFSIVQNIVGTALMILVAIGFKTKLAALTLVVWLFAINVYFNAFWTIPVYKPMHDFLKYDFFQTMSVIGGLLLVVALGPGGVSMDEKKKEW
UniProt O00743: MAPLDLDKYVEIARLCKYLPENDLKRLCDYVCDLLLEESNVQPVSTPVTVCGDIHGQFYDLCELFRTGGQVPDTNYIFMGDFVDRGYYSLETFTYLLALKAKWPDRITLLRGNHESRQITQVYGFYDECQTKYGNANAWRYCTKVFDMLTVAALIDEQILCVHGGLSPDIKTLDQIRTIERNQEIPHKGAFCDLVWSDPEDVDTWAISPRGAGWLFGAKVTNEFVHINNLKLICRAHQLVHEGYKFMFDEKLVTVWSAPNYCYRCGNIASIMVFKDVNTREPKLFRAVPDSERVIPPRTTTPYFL
UniProt O43572: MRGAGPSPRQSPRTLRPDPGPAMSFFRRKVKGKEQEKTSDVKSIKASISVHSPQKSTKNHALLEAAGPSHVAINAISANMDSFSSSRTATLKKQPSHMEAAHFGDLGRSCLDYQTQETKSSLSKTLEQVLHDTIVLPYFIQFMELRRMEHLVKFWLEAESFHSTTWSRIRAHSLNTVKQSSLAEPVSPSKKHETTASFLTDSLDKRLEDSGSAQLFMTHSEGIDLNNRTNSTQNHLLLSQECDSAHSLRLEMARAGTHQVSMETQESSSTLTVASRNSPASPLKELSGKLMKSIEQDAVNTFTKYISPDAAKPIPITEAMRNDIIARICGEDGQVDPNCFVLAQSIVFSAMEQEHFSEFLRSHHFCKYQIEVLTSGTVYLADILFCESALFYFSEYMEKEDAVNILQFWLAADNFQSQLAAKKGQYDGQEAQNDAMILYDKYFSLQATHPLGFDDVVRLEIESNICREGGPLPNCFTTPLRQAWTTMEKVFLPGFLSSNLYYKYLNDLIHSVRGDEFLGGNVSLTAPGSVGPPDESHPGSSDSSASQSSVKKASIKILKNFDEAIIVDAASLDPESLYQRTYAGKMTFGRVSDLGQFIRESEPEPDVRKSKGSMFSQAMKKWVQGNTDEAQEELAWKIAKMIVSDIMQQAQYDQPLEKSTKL
UniProt O43175: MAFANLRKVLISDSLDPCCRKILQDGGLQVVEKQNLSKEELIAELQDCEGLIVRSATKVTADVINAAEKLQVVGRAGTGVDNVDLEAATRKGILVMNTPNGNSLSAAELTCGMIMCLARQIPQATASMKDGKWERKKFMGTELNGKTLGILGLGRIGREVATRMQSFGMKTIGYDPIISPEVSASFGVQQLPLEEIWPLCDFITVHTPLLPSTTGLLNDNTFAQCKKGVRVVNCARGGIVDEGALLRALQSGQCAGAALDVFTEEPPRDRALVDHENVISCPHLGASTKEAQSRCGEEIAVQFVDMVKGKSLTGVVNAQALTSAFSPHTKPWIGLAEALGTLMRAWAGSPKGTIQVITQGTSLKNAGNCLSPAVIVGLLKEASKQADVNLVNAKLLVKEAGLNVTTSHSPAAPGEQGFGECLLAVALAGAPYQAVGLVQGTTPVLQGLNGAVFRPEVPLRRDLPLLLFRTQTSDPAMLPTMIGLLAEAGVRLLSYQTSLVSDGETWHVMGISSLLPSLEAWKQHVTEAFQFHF
UniProt O00399, whole entry: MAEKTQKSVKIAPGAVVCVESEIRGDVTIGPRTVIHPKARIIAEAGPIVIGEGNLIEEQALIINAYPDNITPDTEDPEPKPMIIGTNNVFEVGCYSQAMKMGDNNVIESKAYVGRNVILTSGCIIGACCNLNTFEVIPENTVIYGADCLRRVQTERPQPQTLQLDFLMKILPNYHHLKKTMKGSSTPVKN
UniProt O43278: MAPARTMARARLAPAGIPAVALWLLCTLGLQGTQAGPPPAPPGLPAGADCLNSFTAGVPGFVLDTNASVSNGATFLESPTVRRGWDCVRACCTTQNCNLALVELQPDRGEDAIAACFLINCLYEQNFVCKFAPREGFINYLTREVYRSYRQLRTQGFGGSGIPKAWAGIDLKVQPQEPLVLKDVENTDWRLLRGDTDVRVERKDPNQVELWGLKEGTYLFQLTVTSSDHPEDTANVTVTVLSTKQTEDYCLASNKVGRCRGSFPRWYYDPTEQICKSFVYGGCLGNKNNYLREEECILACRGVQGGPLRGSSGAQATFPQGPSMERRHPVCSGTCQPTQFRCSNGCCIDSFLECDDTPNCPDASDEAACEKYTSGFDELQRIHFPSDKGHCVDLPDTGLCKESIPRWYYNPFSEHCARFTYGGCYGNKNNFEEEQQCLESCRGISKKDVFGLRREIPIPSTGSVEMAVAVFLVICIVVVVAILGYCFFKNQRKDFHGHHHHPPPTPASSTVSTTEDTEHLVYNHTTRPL
UniProt O43390: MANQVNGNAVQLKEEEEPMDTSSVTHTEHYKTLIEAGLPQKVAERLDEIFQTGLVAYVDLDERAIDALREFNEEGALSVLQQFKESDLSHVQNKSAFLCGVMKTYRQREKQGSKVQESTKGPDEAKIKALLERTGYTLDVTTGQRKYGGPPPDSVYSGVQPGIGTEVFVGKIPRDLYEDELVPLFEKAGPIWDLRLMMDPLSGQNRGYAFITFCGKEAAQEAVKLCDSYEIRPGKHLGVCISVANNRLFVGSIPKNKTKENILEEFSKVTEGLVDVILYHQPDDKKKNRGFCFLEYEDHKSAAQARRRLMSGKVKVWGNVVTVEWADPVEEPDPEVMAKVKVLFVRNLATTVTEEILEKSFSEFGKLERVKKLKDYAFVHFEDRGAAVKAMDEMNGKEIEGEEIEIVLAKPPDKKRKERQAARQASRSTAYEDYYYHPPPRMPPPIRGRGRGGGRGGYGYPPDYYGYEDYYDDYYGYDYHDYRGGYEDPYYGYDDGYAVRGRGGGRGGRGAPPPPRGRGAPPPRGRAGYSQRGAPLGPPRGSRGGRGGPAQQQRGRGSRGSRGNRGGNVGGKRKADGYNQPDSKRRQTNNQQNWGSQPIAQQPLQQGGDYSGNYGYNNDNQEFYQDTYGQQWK

Compound: Nc1ncnc2c1ncn2[C@@H]1O[C@H](COP(=O)(O)OP(=O)(O)OP(=O)(O)O)[C@@H](O)[C@H]1O [adenosine triphosphate]
Assay: NP40-soluble protein abundance relative to vehicle (solubility fold change) (ratio); higher = more soluble protein in presence of ATP
Settings: concentration: 0.1mM
Procedure, shortened: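 Crude Jurkat lysate, prepared by Dounce homogenisation, was exposed to eight concentrations from 0.1 to 10 mM for 10 min at room temperature and then 3 min at 37 °C. Solubilisation used 0.8% NP40 with benzonase for 60 min at 4 °C, followed by ultracentrifugation and TMT labelling of the supernatant for LC-MS/MS. After vsn normalisation of intensities, each value is the fold change against the detergent-processed vehicle within each replicate, across three independent experiments.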

Q: For UniProt O15439 and related entries, which NP40-soluble protein abundance is on record?
A: 1.03 ± 0.052

Q: Which NP40-soluble protein abundance does the source give for UniProt O14787-2 here?
A: 0.944 ± 0.032

Q: How did the NP40-soluble protein abundance turn out when UniProt O00410 and related entries was run?
A: 0.983 ± 0.026

Q: For TRAPPC3 (UniProt O43617), which NP40-soluble protein abundance is on record?
A: 0.939 ± 0.076

Q: SYNJ2 (UniProt O15056) was tested. Which NP40-soluble protein abundance did it give?
A: 1.02 ± 0.025

Q: With DAPK3 (UniProt O43293) as the target, how does the NP40-soluble protein abundance read?
A: 1.04 ± 0.06

Q: With UniProt O60231 and related entries as the target, how does the NP40-soluble protein abundance read?
A: 1.1 ± 0.047

Q: Which NP40-soluble protein abundance does the source give for “O60344 and related entries (UniProt P0DPD6)” here?
A: 0.94 ± 0.064

Q: With UniProt O15265 and related entries as the target, how does the NP40-soluble protein abundance read?
A: 0.9 ± 0.017

Q: With UniProt O14686 and related entries as the target, how does the NP40-soluble protein abundance read?
A: 0.973 ± 0.02

Q: UniProt O43670-2|X6R4W8 was tested. Which NP40-soluble protein abundance did it give?
A: 1.04 ± 0.034

Same assay, conditions: concentration: 0.5mM

Q: For NDUFS5 (UniProt O43920), which NP40-soluble protein abundance is on record?
A: 0.975 ± 0.021

Q: Which NP40-soluble protein abundance does the source give for UniProt O60341 here?
A: 1.03 ± 0.044

Q: PSMD9 (UniProt O00233) was tested. Which NP40-soluble protein abundance did it give?
A: 0.9668 ± 0.0094

Q: With UniProt O43318-2|O43318 as the target, how does the NP40-soluble protein abundance read?
A: 1.01 ± 0.038

Q: With UniProt O15040 and related entries as the target, how does the NP40-soluble protein abundance read?
A: 0.938 ± 0.059

Q: With ARID1A (UniProt O14497) as the target, how does the NP40-soluble protein abundance read?
A: 1.02 ± 0.082

Q: With TRAFD1 (UniProt O14545) as the target, how does the NP40-soluble protein abundance read?
A: 0.974 ± 0.068

Q: For UniProt O00182 and related entries, which NP40-soluble protein abundance is on record?
A: 1.02 ± 0.051

Q: For SMARCA5 (UniProt O60264), which NP40-soluble protein abundance is on record?
A: 1.18 ± 0.037

Q: How did the NP40-soluble protein abundance turn out when UniProt O15260 and related entries was run?
A: 0.954 ± 0.082

Q: How did the NP40-soluble protein abundance turn out when UniProt O00743 and related entries was run?
A: 1.04 ± 0.091

Q: AKAP10 (UniProt O43572) was tested. Which NP40-soluble protein abundance did it give?
A: 1.07 ± 0.023

Q: How did the NP40-soluble protein abundance turn out when PHGDH (UniProt O43175) was run?
A: 0.969 ± 0.046

Q: For UniProt O43663 and related entries, which NP40-soluble protein abundance is on record?
A: 1.01 ± 0.027

Q: How did the NP40-soluble protein abundance turn out when UniProt O43736 and related entries was run?
A: 0.934 ± 0.025

Q: Which NP40-soluble protein abundance does the source give for DCTN6 (UniProt O00399) here?
A: 1 ± 0.056

Q: How did the NP40-soluble protein abundance turn out when FANCG (UniProt O15287) was run?
A: 0.954 ± 0.14

Q: With UniProt O43278 and related entries as the target, how does the NP40-soluble protein abundance read?
A: 0.971 ± 0.049

Q: Which NP40-soluble protein abundance does the source give for UniProt O60333-2|O60333-3 here?
A: 0.974 ± 0.034

Q: With STX6 (UniProt O43752) as the target, how does the NP40-soluble protein abundance read?
A: 0.925 ± 0.074

Q: For GAK (UniProt O14976), which NP40-soluble protein abundance is on record?
A: 0.987 ± 0.034

Q: With UniProt O14530 and related entries as the target, how does the NP40-soluble protein abundance read?
A: 0.953 ± 0.11

Q: For MRPS12 (UniProt O15235), which NP40-soluble protein abundance is on record?
A: 0.931 ± 0.14

Q: For AP3B1 (UniProt O00203), which NP40-soluble protein abundance is on record?
A: 0.971 ± 0.067

Q: With “M0R3A8 and related entries (UniProt Q9NWS0)” as the target, how does the NP40-soluble protein abundance read?
A: 0.951 ± 0.02

Q: How did the NP40-soluble protein abundance turn out when UniProt O43390 and related entries was run?
A: 1.06 ± 0.049

Q: Which NP40-soluble protein abundance does the source give for UniProt O15439 and related entries here?
A: 0.873 ± 0.056

Q: With UniProt O14787-2 as the target, how does the NP40-soluble protein abundance read?
A: 0.979 ± 0.087

Q: How did the NP40-soluble protein abundance turn out when UniProt O00410 and related entries was run?
A: 0.983 ± 0.025

Q: Which NP40-soluble protein abundance does the source give for TRAPPC3 (UniProt O43617) here?
A: 0.873 ± 0.14

Q: How did the NP40-soluble protein abundance turn out when SYNJ2 (UniProt O15056) was run?
A: 1.04 ± 0.018

Q: Which NP40-soluble protein abundance does the source give for DAPK3 (UniProt O43293) here?
A: 1.1 ± 0.044

Q: How did the NP40-soluble protein abundance turn out when UniProt O60231 and related entries was run?
A: 1.1 ± 0.03

Q: With “O60344 and related entries (UniProt P0DPD6)” as the target, how does the NP40-soluble protein abundance read?
A: 0.995 ± 0.048

Q: Which NP40-soluble protein abundance does the source give for UniProt O15265 and related entries here?
A: 0.898 ± 0.17

Q: UniProt O14686 and related entries was tested. Which NP40-soluble protein abundance did it give?
A: 0.988 ± 0.041

Q: For UniProt O43670-2|X6R4W8, which NP40-soluble protein abundance is on record?
A: 1.177 ± 0.0029
